From paper PMC12183826, “Structure-based design and evaluation of tyrosinase inhibitors targeting both human and mushroom isozymes” (RSC Medicinal Chemistry, 2025) come the findings set out here.

The nature of this data set: In vitro sun protection factor by UV spectrophotometry. Conditions: UV absorbance 290–320 nm, Mansur equation. The class given is physicochemical.

Marks after values point to notes of the source that are not given here.

Consider `O=C(c1ccc(=O)[nH]c1)N1CCN(c2ccc(O)cc2)CC1` [Compound 2, 5-[4-(4-hydroxyphenyl)piperazine-1-carbonyl]pyridin-2(1H)-one], for which the SPF is listed as 7.36 ± 0.02^a.

Turning to `CC(=O)N1CCN(c2ccc(O)cc2)CC1` [Compound 3, 1-[4-(4-hydroxyphenyl)piperazin-1-yl]ethan-1-one], the SPF is given as 1.62 ± 0.10^b.
